Among the data in paper PMC11212424 are binding values, retold here.

Amino acid sequences for entries named in this document (tags omitted).
UniProt Q2EJA0: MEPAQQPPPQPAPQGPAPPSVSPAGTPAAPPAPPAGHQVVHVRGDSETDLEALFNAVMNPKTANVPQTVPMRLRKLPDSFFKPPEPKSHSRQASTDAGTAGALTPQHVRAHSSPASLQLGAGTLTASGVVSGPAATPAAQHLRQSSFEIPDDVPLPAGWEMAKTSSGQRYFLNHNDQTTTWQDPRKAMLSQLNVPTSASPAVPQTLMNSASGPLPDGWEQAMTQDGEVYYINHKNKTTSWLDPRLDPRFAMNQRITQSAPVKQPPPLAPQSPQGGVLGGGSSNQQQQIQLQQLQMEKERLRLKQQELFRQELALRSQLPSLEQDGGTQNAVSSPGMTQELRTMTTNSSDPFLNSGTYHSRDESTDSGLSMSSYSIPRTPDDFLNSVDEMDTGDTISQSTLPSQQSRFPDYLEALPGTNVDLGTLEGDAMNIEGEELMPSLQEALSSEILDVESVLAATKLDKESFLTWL

In this experiment the target is T1, Flag-Tudor-SN (Tudor staphylococcal nuclease) (UniProt Q66X93).
T1 sequence: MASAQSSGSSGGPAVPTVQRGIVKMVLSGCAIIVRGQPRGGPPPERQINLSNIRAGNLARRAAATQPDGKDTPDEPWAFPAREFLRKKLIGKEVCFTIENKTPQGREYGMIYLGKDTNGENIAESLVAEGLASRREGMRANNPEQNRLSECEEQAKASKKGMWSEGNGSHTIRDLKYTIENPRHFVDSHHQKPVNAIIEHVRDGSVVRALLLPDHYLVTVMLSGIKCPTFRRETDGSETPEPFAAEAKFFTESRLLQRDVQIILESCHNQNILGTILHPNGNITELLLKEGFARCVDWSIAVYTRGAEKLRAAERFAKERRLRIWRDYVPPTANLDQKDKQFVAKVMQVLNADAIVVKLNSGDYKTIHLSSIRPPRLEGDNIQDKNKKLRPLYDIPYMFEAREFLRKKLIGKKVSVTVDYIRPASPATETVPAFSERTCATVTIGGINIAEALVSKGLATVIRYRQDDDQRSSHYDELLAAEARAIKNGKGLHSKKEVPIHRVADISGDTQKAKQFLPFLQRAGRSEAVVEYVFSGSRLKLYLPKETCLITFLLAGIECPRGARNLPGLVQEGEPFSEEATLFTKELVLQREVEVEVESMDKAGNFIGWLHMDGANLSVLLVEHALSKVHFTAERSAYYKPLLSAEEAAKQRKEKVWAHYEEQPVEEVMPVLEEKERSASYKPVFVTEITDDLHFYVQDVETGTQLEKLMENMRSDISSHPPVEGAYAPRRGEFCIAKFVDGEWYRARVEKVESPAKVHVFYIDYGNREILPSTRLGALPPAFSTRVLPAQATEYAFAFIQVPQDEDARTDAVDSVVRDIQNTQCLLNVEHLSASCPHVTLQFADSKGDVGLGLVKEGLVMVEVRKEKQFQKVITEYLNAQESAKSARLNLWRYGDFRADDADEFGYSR
The experiment is described as follows: affinity purification with mass spectrometry; lysates of H9c2 cells stably expressing Flag-Tudor-SN (Flag-vector as control) on anti-Flag agarose beads, eluted, SDS-PAGE with silver staining, bands cut out and read by LC-MS/MS.

No constants are given. Whether binding was seen depends on the method and setting. Binding seen in cells or lysates may run through a third protein. Here binding means that the protein was enriched with, or labelled near, the bait; the list need not be complete. Tags and fused reporters may be left off the sequences shown.

For the substance “Yes-associated protein (YAP), endogenous in H9c2 cells (from UniProt Q2EJA0 1-469)”, the binding result is given as “binds”.
